Test results: publication PMC10371797
These are yes or no findings as the source states them, for the method shown. In cells and extracts the contact can be indirect. These calls come from enrichment with a bait or labelling near it, and not all partners need be listed.

The chains behind the UniProt entries cited, without tags or fusion partners.
UniProt O75152: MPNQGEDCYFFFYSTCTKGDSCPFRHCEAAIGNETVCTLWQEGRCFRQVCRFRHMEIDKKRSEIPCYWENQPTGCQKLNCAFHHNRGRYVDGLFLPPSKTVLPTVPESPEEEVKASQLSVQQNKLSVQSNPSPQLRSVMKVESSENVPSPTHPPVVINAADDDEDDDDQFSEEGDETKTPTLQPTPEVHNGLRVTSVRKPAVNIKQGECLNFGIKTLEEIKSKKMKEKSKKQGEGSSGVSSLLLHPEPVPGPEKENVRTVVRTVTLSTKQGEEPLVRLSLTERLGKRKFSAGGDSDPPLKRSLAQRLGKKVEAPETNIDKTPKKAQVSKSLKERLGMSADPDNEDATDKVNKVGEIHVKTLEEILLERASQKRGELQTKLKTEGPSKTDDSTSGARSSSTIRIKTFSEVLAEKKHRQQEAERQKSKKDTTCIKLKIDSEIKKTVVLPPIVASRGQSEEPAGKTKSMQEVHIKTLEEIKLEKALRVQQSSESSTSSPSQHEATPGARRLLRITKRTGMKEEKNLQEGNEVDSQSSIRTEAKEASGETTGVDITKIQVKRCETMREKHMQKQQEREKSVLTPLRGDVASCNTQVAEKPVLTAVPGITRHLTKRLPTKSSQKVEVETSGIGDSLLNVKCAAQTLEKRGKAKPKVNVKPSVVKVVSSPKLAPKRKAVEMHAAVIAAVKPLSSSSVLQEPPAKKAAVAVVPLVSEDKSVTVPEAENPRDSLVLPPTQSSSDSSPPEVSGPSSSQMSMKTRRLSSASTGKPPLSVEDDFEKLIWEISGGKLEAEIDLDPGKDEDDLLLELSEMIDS
UniProt Q6NZF1: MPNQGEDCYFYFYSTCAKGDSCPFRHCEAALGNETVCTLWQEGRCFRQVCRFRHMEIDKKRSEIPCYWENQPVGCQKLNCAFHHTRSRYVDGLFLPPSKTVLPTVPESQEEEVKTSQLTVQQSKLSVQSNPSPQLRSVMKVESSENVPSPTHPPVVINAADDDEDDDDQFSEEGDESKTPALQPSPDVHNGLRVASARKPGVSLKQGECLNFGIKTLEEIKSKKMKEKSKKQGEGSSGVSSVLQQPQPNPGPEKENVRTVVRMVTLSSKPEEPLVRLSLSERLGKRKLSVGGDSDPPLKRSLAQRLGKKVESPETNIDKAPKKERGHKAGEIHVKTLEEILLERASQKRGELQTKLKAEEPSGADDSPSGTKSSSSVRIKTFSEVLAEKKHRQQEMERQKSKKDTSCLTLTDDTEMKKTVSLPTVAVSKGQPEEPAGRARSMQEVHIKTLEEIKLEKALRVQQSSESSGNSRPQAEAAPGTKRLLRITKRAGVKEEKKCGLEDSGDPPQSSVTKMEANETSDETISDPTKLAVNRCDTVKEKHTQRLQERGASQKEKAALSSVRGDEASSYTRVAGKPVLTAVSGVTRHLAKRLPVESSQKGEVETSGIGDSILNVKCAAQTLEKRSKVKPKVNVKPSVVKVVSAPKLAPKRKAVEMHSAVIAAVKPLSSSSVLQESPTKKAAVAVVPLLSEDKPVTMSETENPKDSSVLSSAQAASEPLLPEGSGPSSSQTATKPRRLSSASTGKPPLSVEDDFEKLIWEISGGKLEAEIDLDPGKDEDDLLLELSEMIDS
UniProt Q13838: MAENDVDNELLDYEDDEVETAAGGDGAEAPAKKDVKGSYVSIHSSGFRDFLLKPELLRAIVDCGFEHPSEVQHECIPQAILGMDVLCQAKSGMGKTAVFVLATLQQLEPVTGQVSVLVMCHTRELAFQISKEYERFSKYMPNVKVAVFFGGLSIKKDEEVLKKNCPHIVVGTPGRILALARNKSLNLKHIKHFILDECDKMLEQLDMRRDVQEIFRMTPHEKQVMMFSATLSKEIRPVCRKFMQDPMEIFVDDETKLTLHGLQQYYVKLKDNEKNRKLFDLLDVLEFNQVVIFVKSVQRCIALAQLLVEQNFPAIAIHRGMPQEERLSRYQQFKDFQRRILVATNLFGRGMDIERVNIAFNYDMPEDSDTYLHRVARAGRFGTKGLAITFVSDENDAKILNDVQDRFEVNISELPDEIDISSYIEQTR
UniProt P38919: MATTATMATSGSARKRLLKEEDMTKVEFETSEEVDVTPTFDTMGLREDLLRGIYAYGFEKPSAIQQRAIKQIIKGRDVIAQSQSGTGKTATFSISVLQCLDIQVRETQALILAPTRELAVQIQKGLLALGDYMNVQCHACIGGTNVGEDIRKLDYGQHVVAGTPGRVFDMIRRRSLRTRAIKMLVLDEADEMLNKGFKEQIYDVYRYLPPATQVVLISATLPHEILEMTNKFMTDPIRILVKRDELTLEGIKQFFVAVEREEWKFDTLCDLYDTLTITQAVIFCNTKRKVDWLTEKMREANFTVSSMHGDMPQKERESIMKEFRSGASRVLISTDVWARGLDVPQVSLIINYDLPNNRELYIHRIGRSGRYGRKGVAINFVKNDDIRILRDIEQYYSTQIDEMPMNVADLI
UniProt Q91VC3: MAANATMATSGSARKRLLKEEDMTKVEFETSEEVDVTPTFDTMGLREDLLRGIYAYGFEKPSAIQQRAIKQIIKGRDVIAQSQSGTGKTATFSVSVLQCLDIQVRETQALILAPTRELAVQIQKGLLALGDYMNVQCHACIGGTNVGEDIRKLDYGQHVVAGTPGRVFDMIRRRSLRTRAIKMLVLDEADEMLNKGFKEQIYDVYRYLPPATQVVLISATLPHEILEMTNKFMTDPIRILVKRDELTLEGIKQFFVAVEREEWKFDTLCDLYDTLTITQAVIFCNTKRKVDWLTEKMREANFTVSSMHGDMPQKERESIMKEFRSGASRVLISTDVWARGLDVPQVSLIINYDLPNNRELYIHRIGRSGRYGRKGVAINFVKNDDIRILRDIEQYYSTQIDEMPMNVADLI
UniProt P11940: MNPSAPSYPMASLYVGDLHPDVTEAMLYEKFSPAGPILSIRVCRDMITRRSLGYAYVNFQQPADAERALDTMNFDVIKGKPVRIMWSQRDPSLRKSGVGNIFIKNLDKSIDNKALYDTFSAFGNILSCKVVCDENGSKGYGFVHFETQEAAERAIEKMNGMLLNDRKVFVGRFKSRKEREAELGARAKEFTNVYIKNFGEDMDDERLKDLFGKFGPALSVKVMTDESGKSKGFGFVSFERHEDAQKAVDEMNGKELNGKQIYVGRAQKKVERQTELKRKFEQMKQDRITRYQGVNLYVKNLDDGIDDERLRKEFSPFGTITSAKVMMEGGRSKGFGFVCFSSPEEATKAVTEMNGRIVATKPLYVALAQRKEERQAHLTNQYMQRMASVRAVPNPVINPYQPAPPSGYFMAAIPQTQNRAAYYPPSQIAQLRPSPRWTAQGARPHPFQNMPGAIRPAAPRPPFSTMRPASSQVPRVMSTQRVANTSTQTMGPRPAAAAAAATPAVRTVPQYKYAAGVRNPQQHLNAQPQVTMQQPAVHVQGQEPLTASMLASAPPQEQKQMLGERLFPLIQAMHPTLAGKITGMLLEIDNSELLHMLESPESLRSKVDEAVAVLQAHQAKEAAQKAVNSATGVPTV

Experiments:
GFP-ZC3H11A(wt) (human) = GFP-ZC3H11A(wt) (human) (UniProt O75152); assay: affinity purification with mass spectrometry; GFP, GFP-ZC3H11A(wt) or GFP-ZC3H11A(dZF) as baits in transfected HeLa cells; lysate with benzonase; GFP-Trap magnetic beads, 1 h at 4 °C; LC-MS/MS
[1] = molecular target: ZC3H11A, endogenous, human HeLa cells (human (endogenous in HeLa)) (UniProt O75152); assay: affinity purification with mass spectrometry; anti-ZC3H11A (heavy) against anti-IgG (light) immunoprecipitation from SILAC-labelled HeLa lysates treated with nuclease; Dynabeads Protein G; LC-MS/MS
[2] = molecular target: ZC3H11A, endogenous, mouse embryonic stem cells (mouse (endogenous in mESCs)) (UniProt Q6NZF1); assay: affinity purification with mass spectrometry; anti-ZC3H11A and anti-IgG immunoprecipitation from mouse embryonic stem cell lysates treated with benzonase; mass spectrometry

binding (GFP-ZC3H11A(wt) (human))	Substance	other results
binds	DDX39B, endogenous, HeLa cells (from UniProt Q13838 1-428)	–
–	EIF4A3, endogenous, HeLa cells (from UniProt P38919 1-411)	binding [1]: binds
–	EIF4A3, endogenous, mouse embryonic stem cells (from UniProt Q91VC3 1-411)	binding [2]: binds
binds	PABPC1, endogenous, HeLa cells (from UniProt P11940 1-636)	–
